{"source": "patent US11896561B2", "about": "“Compositions including a cannabinoid and protocatechuic acid” (priority 2021, dated 2024)", "origin": "cited, not measured here", "conditions": "range; cited from earlier work"}
{"smiles": "C=C(C)[C@@H]1CCC(C)=C[C@H]1c1c(O)cc(CCCCC)cc1O", "note": "[CBD, Cannabidiol]", "values": [{"measurement": "bioavailability by inhalation", "value": "11-45%"}]}
